# Results published in patent EP2058306A1, “Heteroaryl-substituted 2-pyridinyl-methylamine derivatives” (SCHWARZ PHARMA AG, priority 2007, dated 2009).
# For at least one compound, name, drawing or mass did not settle the structure.
# Molecular target: alpha-1
# Assay: radioligand binding assay, adrenergic alpha-1 receptor, [3H]prazosin
# Settings: porcine cortical membranes, mean of two to five experiments in triplicate, read-out: Ki alpha1
# Method: The investigation of receptor binding to the serotonin and adrenergic receptors was done according to a published procedure (Heindl, C. et al., Tetrahedron: Asymmetry (2003), 14, 3141-3152). In detail, for the determination of the binding properties to serotonin receptors membrane preparations from porcine cortex was incubated with the 5-HT1A selective radioligand [^3H]WAY 100635 or with the 5-HT2 selective compound [^3H]ketanserin. The measurement of alpha-1 and alpha-2 receptor binding was achieved when utilizing porcine cortical membranes and the selective radioligands [^3H]prazosin (for alpha-1) and [^3H]RX821002 in an assay similar to that described above.
# The results of the binding experiments are summarized in Table 1 as mean values of two to five individual experiments each done in triplicate and expressed as Ki values in nM.
smiles,measurement,value
Cc1ccc(CNCC2(F)CCN(C(=O)c3coc4ccccc34)CC2)nc1 [Example E36],Ki,0.501 to 5 µM
